No constants are given. Whether binding was seen depends on the method and setting. Binding seen in cells or lysates may run through a third protein. Some results given as binding are weak or reduced against the parent protein; the word gives no strength.
What was measured:
[1] = biological target: androgen receptor variant AR-V7 (UniProt P10275); experiment: co-IP; immunoprecipitation with the NTD-binding anti-AR antibody (N-20) from cells co-transfected for 48 hours with Aurora A and FL-AR, AR-V7 or AR-123/2b (PC-3 in the text, HEK293 in the legend); western blot with anti-AR (N-20) and anti-Aurora A
[2] = biological target: full-length androgen receptor (UniProt P10275); experiment: as above

Amino acid sequences for entries named in this document (tags omitted). A change or cut given only in a name is not applied to a line headed by its entry. Chains listed by the source or under a name are the forms on record and can include a tag or linker.
UniProt P10275: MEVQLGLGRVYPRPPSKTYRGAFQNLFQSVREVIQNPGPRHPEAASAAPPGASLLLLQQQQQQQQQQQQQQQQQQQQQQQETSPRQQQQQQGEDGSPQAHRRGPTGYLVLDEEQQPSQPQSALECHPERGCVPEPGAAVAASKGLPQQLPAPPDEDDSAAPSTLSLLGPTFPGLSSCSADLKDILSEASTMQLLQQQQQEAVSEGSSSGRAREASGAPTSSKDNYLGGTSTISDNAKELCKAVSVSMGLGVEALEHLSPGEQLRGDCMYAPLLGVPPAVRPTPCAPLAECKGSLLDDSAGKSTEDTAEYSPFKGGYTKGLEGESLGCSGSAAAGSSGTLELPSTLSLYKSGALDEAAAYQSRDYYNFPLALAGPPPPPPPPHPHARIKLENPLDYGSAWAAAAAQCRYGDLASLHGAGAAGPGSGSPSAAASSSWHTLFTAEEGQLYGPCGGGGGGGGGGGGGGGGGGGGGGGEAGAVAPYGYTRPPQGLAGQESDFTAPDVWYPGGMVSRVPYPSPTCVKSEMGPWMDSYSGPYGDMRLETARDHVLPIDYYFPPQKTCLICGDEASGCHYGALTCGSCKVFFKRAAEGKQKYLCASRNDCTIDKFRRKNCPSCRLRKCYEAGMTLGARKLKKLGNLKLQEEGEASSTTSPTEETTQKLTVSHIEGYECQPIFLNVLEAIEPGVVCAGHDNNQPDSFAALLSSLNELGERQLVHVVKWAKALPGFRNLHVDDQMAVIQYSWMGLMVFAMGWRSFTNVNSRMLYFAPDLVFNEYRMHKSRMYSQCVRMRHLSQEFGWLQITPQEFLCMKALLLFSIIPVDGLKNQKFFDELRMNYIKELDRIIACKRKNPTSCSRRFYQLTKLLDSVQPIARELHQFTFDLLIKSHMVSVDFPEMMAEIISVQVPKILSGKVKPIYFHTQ
androgen receptor variant AR-V7 (P10275, form named): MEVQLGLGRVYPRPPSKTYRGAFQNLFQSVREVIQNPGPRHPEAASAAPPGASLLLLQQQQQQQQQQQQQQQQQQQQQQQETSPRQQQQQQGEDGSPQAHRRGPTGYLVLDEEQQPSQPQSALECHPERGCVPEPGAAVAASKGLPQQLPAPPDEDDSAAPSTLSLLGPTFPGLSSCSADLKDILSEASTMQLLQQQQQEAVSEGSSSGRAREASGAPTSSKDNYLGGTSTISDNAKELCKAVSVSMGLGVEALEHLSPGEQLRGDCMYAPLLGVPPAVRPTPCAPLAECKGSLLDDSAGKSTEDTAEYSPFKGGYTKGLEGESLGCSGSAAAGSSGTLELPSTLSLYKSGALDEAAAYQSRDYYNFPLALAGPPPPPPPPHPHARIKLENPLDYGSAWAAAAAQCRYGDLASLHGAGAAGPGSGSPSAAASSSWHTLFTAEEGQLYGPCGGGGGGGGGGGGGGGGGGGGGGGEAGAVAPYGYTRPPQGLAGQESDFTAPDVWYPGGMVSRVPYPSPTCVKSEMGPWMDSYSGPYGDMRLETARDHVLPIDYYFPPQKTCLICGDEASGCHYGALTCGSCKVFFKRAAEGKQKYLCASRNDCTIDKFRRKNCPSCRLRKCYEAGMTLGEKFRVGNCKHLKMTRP

B1: Aurora A kinase (enzyme, UniProt O14965 1-403)
chain: MDRSKENCISGPVKATAPVGGPKRVLVTQQFPCQNPLPVNSGQAQRVLCPSNSSQRIPLQAQKLVSSHKPVQNQKQKQLQATSVPHPVSRPLNNTQKSKQPLPSAPENNPEEELASKQKNEESKKRQWALEDFEIGRPLGKGKFGNVYLAREKQSKFILALKVLFKAQLEKAGVEHQLRREVEIQSHLRHPNILRLYGYFHDATRVYLILEYAPLGTVYRELQKLSKFDEQRTATYITELANALSYCHSKRVIHRDIKPENLLLGSAGELKIADFGWSVHAPSSRRTTLCGTLDYLPPEMIEGRMHDEKVDLWSLGVLCYEFLVGKPPFEANTYQETYKRISRVEFTFPDFVTEGARDLISRLLKHNPSQRPMLREVLEHPWITANSSKPSNCQNKESASKQS
In the case of B1, the binding [1] is reported as “no binding” and the binding [2] is reported as “binds”.

Reference: PMC5311967
